Residue numbers refer to the chain shown, from its start. Results are given in words; binding and its absence hold for the method and conditions named. Some binding calls cover weakened binding; strength is not graded here. For part of these data: Where a sequence is shown, tags or fusion partners need not be part of it.
T1: human galectin-10-His (human)
T1 sequence: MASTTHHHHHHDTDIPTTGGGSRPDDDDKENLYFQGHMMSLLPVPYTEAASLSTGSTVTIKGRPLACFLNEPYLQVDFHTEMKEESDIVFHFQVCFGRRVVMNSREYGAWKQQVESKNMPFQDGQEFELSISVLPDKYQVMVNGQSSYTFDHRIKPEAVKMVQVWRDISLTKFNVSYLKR

T2: human galectin-10-His (recombinant human galectin-10 with TEV-cleavable N-terminal His-tag) (human)
T2 sequence: T1 sequence

T3: TEV-cleaved wild-type recombinant human galectin-10 (soluble, in Fab complexes, or as recombinant galectin-10 crystals / CLCs) (human) (UniProt Q05315)
T3 sequence: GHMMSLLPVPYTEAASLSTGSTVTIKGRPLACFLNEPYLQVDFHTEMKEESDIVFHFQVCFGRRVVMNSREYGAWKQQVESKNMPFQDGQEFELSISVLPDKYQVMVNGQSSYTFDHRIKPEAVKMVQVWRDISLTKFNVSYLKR

B1: VHH clone 13A05 (VHH)
VHH: QVQLVESGGGLVQAGGSLRLSCAASSSSYSMSWFRQAPGKEREFVAIISWSGGTYYDDSVKGRFTVSRDNAKNTVYLQMNSLKPEDTAVYYCAAGTQFSFSYREYDYWGQGTQVTVSS
notes: Purified VHH-Myc-His from E. coli; not shown: Myc and His tags of the phagemid vector
B2: VHH clone 13C06 (VHH)
VHH: B1 VHH with V2L, S32G, I47T, T54F, Q97R, D106H
notes: as for B1
B3: VHH clone 13C03 (VHH)
VHH: QVQLVESGGGLVQPGGSLRLSCAASGSIFSISRMGWYRQAPGKQRELVAIIFSDASTDYADSVKGRFTISRSNAKNTVYLQMNSLKPEDTAVYYCKSVLRAAGYGYFNQYWGQGTQVTVSS
notes: as for B1
B4: 2C07 mouse IgG1 (antibody, V domains shown)
VH: ELQLVESGGGLVQPGGSLRLSCAASGFTFSSYAMSWVRQAPGKGLEWVSNINSGGGSTGYADSVKGRFTISRDNAKNTLYLQMNSLKPEDMAVYYCAKYLRTYYPNAAFGMDYWGKGTLVTVSS
VL: QAVLTQPSAVSVSLGQTARITCQGGNFGRYYASWYQQKPGQAPVLVIYRDSERPSGIPERFSGSSSGDTATLTISGAQAEDEADYYCQSGRSSDNAVFGGGTHLTGL
notes: VH on mouse IgG1 heavy chain constant domains (CH1-CH2-CH3), VL on mouse lambda light chain constant domain; also called 2C07 mIgG1
B5: 6B06 mouse IgG1 (antibody, V domains shown)
VH: QVQRQESGPGLVKPSQTLSLTCTVSGGSITTNYYSWSWIRQPPGKGLEWIGYIAYSGSTSYSPSLKSRTSISRDTSNNQFSLQLSSVTPEDTAVYYCARSRSSPTTFGMDYWGKGTLVTVSS
VL: B4 VL with Q1S, A2S, V3A, A32V, Q36T, R49Q, S55T, R91T, A96I, G106V
notes: also called 6B06 mIgG1
B6: 6A05 mouse IgG1 (antibody, V domains shown)
VH: EVQLVESGGGLVQPGGSLRLSCAASGFTFSSYAMSWVRQAPGKGLEWVSAINSGGGWTSYVDSVKGRFTISRDNAKNTLYLQMDSLKPEDTAVYYCTKYSGPELNTQYGMDYWGKGTLVTVSS
VL: B4 VL with Q1N, A2F, V3M, R29S, E52G, R91S, A96T, G106V
notes: also called 6A05 mIgG1
B7: 2F09 mouse IgG1 (antibody, V domains shown)
VH: QVQVQESGPGLVKPSQTLSLTCTVSGGSITTNYFYWSWIRQSPGKGLEWIGAIAYSGRTYYSPSLKSRTSISRDTSNNQFTLQLSSVTPEDTAVYYCARGPKGLASYYDYWGQGTQVTVSS
VL: B4 VL with Q1S, A2S, V3A, R29Y, A32V, E52G, R91S, A96T, G106V
notes: VH on mouse IgG1 heavy chain constant domains (CH1-CH2-CH3), VL on mouse lambda light chain constant domain; also called 2F09 mIgG1
B8: 6E10 mouse IgG1 (antibody, V domains shown)
VH: QLQLVESGGGLVQPGGSLRLSCAASGFTFSSYWMYWVRQAPGKGLEWVSAINTGGGSTYYADSVKGRFTISRDNAKNTLYLQMNSLKPEDTALYYCARAGSGVAGTGYDYWGQGTQVTVSS
VL: B4 VL with A2P, T5N, R29Y, A32V, E52G, R91S, G106V
notes: also called 6E010; 6E10 mIgG1
B9: 6F06 mouse IgG1 (antibody, V domains shown)
VH: QVQLVESGGGLVQPGGSLRLSCAASEFTFSRYSMSWVRQAPGKGLEWVSTINSGGGSTSYVDSVKGRFTISRDNAKNTLYLQMNSLKPEDTAVYYCTKSQGGISFSTQYGMDYWGKGTLVTVSS
VL: B4 VL with Q1N, A2F, V3M, S33N, R49K, A83S, R91S, S92V, T105A, G106V
notes: also called 6F06 mIgG1
B10: VHH clone 13E09 (VHH)
VHH: QVQVQESGGGLVQAGNSLRLSCAASGRTFSSYHMMWFRQAPGKEREFVAAIAWRGGTYCANSVKGRCTISRDNAKDTVYLQMNSLKPEDTAVYFCAASLRYVFDPSAMDYWGKGTLVTVSS
notes: as for B1
B11: 6A08 mouse IgG1 (antibody, V domains shown)
VH: QVQLVESGGGLVQPGGSLRLSCAASGFTFSSYAMSWVRQAPGKGPEWVSAINRGGGSTYYADSVKGRFTISRDNAKNTLYLQMNSLKPEDAAVYYCATPGDRLWYYRYDYWGQGAQVTVSS
VL: QTVVTQEPSLSVSPGGTVTLTCGLSSGSVTSSNYPGWYQQTPGQAPRLLIYNTNSRYSGVPNRFSGSISGNKAALIISGAQPEDEADYHCALNRVRGTYRVFGGGTHLTVL
notes: also called 6A08 mIgG1
B12: 6F05 Fab (Fab, V domains shown)
VH: B11 VH with V2L, P45L, R53S, Y59S, A91T, A115T
VL: QAGLTQPPSVSGTLGKAVTISCAGTSSDIGYGNYVSWYQQLPGTAPKLLIYKVSRRASGVPDRFSGSKSGNTASLSISGLQSEDEADYYCASYRYRNNVVFGGGTHLTVL
notes: VH on human CH1 constant domain (with part of the hinge region), VL on human lambda constant domain; also called 6F5; Fab 6F5
B13: VHH clone 13H07 (VHH)
VHH: QLQLVESGGGLVQAGGSLRLSCVASGRTFSTYAMDWFRQAPGKEREFVAAISWHSAIYYADAVKGRFTISRDNGKNTMYLQMNNLKPEDTAVYFCAAALRYRFNPSAMEYWGKGTLVTVSS
notes: as for B1
B14: 1A12 scFv-human Fc (Fc fusion)
scFv: QVQLVESGGGLVQPGGSLRVSCAASGFTFSSYYMSWVRQAPGKGLEWVSAINSGGGSTYYADSVKGRFTISRDNAKNTLYLQMNSLKSEDTAVYYCVQNGGIWSFGSWGQGTQVTVSSGGGGSGGGGSGGGGSSSALTQPSAISVSLGQTARITCQGGNFGYYYVSWYQQKPGQAPVQVIYGDSNRPSGIPERFSGSSSGGTATLTISGAQAEDEADYYCLSYESSDYPVFGGGTHLTVL
notes: about 100 kDa on SDS-PAGE; also called 1A12 ScFv-hFc; not shown: CH2-CH3 constant domains of human IgG1 (vector pUPEX50)
B15: 1D11 Fab (Fab, V domains shown)
VH: QVQLVESGGGLVQPGGSLRLSCAASGFTFDDYAMSWVRQAPGKGLEWVSGISWNGGSTYYAESMKGRFTISRDNAKNTLYLQMNSLKSEDTAVYYCAKDRNLGYRLGYPYDYWGQGTQVTVSS
VL: QSVLTQPPSVSGSPGETVTISCAGTSSDVGYGNYVSWYQQLPGMAPRLLIYEVNKRASGITDRFSGSKSGNTASLTISGLQSEDEGDYYCASYRSSNNAVFGGGTHLTVL
B16: VHH clone 13C07 (VHH)
VHH: QLQVVESGGGLVQAGGSLRLSCAASSSAYSMAWFRQAPGKEREFVAAITWSGGSHHDDSVKGRFTISRDGAKNTVYLQMNSLKPEDTAVYYCAVGTLYSFSYRDYDYWGQGTQVTVSS
notes: as for B1
B17: VHH clone 13G12 (VHH)
VHH: B16 VHH with A32G, A47V, T49S, H56Y, S101R
notes: as for B1
B18: 4E08 Fab (Fab, V domains shown)
VH: QVQRQESGPGLVKPSQTLSLTCTVSGGSITTSYYAWSWIRQPPGKGLEWMGVIASDGSTYYSPSLKSRTSISRDTSKNQFSLQLSSVTPEDTAVYYCALYIRGSSWSGWSAYDYWGQGTQVTVSS
VL: QPVLNQPSAVSVSLGQTARITCQGGNFGYYYGSWYQQKPGQAPVLVIYKDSERPSGIPERFSGSSSGGTATLTISRAQAEDEADYYCQSADSSDNPVFGGGTHLTVL
notes: VH on human CH1 constant domain (with part of the hinge region), VL on human lambda constant domain; also called 4E8; Fab 4E8

Key:
[1] = biological target: T1, human galectin-10-His (human); test: ELISA, Gal10-His coated at 1 ug/mL, VHH titrated, anti-Myc-HRP
[2] = biological target: T2, human galectin-10-His (recombinant human galectin-10 with TEV-cleavable N-terminal His-tag) (human); test: BLI tandem on galectin-10-His, isotype control as saturating antibody
[3] = biological target: T3, TEV-cleaved wild-type recombinant human galectin-10 (soluble, in Fab complexes, or as recombinant galectin-10 crystals / CLCs) (human); test: complex isolated by size-exclusion chromatography and co-crystallized
[4] = biological target: T2, human galectin-10-His (recombinant human galectin-10 with TEV-cleavable N-terminal His-tag) (human); test: ELISA, scFv-hFc on coated galectin-10-His (0.2 ug/mL)

Binder	binding [1]	binding [2]	also measured
B1	binds		
B2	binds		
B3	binds		
B4		binds	
B5		binds	
B6		binds	
B7		binds	
B8		binds	
B9		binds	
B10	binds		
B11		binds	
B12			binding [3]: binds
B13	binds		
B14			binding [4]: binds
B15			binding [3]: binds
B16	binds		
B17	binds		
B18			binding [3]: binds

— patent publication US20190367619A1 (ARGENX, published 2019)
